# ± gives the standard deviation of the averaged measurements. The entries are a selection whose mix differs from that of the whole data set.
# Protein sequences, listed by entry. Tags and fused reporters are not part of them. Lines headed by an entry give the natural chain unless they say otherwise; changes in a name come on top.
# UniProt Q6PML9: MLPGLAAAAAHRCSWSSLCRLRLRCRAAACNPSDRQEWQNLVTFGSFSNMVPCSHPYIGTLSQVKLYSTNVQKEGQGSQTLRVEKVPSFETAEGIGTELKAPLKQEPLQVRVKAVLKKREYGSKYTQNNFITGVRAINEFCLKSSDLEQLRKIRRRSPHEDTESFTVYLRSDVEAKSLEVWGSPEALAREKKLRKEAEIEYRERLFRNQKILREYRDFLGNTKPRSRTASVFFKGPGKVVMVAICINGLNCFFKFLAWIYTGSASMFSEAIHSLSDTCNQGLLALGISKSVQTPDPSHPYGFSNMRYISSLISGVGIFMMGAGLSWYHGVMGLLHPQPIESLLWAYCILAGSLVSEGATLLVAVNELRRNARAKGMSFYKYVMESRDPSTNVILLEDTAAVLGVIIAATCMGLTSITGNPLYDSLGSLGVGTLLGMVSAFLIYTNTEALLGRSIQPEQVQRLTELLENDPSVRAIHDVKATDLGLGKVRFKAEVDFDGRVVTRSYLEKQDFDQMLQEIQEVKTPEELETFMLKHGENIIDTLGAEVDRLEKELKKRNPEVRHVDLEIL
# UniProt Q6PIJ6: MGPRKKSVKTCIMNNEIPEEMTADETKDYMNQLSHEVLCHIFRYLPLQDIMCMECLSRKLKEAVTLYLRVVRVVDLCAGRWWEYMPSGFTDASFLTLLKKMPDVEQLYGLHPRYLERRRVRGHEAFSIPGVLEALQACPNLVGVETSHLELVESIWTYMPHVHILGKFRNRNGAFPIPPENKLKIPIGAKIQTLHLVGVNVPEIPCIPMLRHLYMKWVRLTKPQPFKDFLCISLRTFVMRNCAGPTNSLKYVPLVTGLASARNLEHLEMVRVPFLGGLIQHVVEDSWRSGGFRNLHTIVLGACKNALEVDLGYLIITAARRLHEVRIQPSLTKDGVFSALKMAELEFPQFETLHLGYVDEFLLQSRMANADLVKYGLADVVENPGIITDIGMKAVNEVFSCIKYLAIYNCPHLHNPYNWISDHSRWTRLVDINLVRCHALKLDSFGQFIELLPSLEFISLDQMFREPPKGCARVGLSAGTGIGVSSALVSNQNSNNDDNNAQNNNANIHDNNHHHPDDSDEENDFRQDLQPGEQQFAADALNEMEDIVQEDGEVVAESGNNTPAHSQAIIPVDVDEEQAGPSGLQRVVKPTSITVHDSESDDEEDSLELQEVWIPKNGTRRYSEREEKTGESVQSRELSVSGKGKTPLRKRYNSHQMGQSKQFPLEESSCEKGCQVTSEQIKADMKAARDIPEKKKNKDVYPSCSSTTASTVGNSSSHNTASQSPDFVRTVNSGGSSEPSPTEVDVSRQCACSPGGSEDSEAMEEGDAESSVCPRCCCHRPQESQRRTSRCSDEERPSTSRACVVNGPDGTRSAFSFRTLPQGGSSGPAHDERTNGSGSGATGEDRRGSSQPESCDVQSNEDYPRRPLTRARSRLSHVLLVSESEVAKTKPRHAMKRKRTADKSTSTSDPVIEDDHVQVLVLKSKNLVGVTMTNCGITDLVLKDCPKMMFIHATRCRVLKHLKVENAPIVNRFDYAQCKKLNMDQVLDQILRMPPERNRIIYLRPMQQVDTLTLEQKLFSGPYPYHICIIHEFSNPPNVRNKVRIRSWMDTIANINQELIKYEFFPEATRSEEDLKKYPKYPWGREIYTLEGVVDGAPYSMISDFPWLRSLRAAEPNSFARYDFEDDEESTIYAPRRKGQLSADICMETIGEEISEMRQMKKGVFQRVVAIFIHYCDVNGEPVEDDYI
# UniProt Q6P1X6: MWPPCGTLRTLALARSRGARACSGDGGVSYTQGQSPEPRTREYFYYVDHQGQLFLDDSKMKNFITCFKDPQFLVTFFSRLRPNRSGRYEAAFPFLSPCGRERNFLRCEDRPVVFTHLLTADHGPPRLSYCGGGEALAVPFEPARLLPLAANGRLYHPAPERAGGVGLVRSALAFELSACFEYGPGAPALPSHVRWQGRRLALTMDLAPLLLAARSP
# UniProt Q7Z4L5: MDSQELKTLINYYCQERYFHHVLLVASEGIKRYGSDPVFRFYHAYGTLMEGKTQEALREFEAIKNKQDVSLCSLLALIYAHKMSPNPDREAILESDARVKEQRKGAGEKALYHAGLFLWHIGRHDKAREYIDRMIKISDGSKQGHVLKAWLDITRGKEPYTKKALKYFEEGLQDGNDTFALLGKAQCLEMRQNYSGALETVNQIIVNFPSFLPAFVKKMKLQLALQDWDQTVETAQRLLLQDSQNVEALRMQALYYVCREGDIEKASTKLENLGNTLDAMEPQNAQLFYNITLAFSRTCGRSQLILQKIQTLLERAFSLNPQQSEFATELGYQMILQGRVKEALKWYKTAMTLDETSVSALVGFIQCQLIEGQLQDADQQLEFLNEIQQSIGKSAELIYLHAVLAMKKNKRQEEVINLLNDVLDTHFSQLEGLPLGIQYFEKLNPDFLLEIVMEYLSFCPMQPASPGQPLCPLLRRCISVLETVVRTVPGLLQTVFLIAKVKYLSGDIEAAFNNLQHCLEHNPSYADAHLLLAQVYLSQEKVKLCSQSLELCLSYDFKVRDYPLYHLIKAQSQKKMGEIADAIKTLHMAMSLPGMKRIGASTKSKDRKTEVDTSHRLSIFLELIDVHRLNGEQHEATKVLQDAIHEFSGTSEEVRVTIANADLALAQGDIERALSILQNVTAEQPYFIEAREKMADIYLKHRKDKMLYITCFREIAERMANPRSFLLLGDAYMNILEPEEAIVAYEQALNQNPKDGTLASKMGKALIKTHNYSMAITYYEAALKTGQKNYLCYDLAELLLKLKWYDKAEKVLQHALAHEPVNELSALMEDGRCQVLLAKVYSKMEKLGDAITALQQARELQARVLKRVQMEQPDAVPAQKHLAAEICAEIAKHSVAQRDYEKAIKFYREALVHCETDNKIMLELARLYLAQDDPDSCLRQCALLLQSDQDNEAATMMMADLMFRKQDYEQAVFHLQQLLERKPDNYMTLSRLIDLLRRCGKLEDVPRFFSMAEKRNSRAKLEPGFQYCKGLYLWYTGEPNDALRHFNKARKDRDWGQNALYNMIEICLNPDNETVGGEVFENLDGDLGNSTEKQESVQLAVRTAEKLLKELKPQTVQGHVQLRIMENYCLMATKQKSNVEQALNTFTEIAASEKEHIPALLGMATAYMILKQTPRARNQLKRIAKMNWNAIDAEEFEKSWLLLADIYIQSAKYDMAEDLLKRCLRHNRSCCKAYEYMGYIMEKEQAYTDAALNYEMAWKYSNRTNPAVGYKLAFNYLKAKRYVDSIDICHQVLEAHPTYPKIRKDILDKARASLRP
# UniProt Q5XPI4: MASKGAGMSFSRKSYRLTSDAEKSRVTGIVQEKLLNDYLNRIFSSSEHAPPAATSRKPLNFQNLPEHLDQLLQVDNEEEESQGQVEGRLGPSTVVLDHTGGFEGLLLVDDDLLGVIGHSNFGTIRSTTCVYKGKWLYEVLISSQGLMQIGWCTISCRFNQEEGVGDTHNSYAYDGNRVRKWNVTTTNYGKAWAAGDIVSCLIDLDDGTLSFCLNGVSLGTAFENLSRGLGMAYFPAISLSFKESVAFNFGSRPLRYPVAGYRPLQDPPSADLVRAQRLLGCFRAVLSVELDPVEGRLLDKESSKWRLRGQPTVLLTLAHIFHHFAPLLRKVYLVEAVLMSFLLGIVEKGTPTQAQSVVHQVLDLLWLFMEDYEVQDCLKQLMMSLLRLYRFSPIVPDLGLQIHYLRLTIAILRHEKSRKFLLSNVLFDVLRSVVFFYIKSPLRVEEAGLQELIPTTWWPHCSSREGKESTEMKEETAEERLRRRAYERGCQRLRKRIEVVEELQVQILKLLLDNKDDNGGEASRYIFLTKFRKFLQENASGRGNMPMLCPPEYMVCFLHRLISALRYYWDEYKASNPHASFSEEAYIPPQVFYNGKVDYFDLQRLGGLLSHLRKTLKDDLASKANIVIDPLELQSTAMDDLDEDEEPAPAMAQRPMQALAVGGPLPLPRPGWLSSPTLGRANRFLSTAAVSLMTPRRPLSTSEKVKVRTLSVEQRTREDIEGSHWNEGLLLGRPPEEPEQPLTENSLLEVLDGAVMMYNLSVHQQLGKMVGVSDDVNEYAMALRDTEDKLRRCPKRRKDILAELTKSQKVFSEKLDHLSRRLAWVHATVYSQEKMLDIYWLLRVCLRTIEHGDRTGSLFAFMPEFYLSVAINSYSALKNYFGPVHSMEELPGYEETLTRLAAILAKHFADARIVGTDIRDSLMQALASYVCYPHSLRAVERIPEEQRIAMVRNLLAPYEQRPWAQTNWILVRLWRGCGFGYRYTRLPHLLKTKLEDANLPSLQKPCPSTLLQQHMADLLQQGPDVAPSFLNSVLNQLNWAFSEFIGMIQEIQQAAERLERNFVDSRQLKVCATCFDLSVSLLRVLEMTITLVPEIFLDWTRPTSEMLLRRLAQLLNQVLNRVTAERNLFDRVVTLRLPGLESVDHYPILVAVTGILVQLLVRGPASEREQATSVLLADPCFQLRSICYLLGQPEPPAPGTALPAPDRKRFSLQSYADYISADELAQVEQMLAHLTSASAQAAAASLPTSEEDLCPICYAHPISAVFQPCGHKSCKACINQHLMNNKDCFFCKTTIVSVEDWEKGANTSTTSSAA
# UniProt Q7L266: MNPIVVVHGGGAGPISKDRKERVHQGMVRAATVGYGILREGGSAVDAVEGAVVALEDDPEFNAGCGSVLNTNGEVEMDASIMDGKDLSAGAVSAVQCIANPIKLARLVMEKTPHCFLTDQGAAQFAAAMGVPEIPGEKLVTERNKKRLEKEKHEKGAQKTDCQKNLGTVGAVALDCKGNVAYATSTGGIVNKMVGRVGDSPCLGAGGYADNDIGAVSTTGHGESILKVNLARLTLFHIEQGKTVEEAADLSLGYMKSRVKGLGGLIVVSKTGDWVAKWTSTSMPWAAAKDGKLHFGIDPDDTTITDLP
# UniProt Q9NWW6: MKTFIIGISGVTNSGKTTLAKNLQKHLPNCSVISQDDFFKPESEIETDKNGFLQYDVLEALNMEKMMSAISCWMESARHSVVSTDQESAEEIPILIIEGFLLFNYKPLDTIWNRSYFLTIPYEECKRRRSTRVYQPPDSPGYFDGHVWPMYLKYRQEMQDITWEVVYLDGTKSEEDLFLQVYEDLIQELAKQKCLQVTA
# UniProt Q68DH5: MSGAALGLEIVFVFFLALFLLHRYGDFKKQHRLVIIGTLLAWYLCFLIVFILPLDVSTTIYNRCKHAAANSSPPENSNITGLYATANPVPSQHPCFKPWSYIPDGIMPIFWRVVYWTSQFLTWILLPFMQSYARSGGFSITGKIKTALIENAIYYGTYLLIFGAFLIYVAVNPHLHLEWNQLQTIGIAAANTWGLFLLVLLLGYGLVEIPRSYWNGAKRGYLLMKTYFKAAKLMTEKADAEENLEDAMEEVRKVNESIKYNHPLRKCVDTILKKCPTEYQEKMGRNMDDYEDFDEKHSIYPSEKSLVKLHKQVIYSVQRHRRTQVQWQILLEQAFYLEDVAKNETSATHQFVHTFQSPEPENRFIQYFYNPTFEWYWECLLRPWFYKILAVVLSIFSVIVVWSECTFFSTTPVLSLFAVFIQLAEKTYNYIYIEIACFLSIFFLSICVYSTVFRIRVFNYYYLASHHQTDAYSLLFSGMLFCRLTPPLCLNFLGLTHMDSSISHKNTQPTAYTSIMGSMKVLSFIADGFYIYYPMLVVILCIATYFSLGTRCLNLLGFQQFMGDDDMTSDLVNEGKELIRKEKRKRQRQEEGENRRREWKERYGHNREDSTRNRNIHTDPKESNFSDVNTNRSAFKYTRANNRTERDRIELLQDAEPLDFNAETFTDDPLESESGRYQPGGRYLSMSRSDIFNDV
# UniProt Q71SY5: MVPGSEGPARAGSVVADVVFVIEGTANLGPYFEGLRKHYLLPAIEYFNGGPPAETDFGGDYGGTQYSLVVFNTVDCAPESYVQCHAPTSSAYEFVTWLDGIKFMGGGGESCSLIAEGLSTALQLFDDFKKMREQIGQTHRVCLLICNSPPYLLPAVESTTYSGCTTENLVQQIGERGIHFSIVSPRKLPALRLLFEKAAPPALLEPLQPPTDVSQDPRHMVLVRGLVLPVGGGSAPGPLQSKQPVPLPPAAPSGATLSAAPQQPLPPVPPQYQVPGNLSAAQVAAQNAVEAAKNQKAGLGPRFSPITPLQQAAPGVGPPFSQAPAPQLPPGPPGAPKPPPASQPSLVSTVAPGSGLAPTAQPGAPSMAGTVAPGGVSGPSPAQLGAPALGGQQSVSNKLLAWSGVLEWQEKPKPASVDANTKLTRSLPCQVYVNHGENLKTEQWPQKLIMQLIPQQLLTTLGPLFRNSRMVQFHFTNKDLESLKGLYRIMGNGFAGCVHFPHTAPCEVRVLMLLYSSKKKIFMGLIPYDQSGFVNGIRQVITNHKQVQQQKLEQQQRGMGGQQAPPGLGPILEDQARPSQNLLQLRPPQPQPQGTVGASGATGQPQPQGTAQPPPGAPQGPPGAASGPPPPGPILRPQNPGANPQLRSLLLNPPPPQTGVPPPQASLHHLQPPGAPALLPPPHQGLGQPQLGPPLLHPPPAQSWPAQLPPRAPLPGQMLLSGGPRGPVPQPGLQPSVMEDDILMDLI
# Compound: Nc1ncnc2c1ncn2[C@@H]1O[C@H](COP(=O)(O)OP(=O)(O)NP(=O)(O)O)[C@@H](O)[C@H]1O [adenylyl imidodiphosphate]
# Assay: NP40-soluble protein abundance relative to vehicle (solubility fold change) (ratio); higher = more soluble protein in presence of AMP-PNP
# Summary of the method: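 Eight concentrations, 0.1 to 10 mM, were tested on Jurkat crude lysate for 10 min at room temperature and then 3 min at 37 °C, in three independent experiments. The lysate was solubilised with 0.8% NP40 and benzonase, ultracentrifuged, and the supernatant TMT-labelled for LC-MS/MS. Each value is the fold change against the detergent-processed vehicle in its own replicate, from vsn-normalised intensities.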
Target,NP40-soluble protein abundance (concentration: 1mM),NP40-soluble protein abundance (concentration: 2mM),NP40-soluble protein abundance (concentration: 4mM),NP40-soluble protein abundance (concentration: 6mM),NP40-soluble protein abundance (concentration: 8mM),NP40-soluble protein abundance (concentration: 10mM)
SLC30A9 (UniProt Q6PML9),1.01 ± 0.018,0.9905 ± 0.0025,1.02 ± 0.011,0.973 ± 0.042,1.01 ± 0.018,0.997 ± 0.028
UniProt Q7Z406 and related entries,0.988 ± 0.013,0.96 ± 0.067,0.956 ± 0.049,1.0353 ± 0.00083,1.013 ± 0.0054,0.983 ± 0.025
UniProt Q7L4P6 and related entries,1.21 ± 0.13,1.37 ± 0.095,1.2 ± 0.15,1.14 ± 0.16,1.03 ± 0.043,1.23 ± 0.19
ABHD13 (UniProt Q7L211),1.01 ± 0.037,0.9867 ± 0.0085,1.003 ± 0.0017,0.994 ± 0.023,0.991 ± 0.035,1.03 ± 0.018
UniProt Q6UXB8 and related entries,0.98 ± 0.029,0.9743 ± 0.0016,0.97 ± 0.037,1.01 ± 0.051,1.04 ± 0.041,1 ± 0.061
NFXL1 (UniProt Q6ZNB6),1.02 ± 0.055,1.06 ± 0.031,1.05 ± 0.082,0.997 ± 0.042,1.03 ± 0.06,0.964 ± 0.035
UniProt Q6PII5-2|B4DED4,0.977 ± 0.019,0.982 ± 0.01,0.951 ± 0.018,1 ± 0.048,1.01 ± 0.043,0.989 ± 0.016
ARHGAP11A (UniProt Q6P4F7),1.07 ± 0.034,0.978 ± 0.011,1.01 ± 0.029,0.985 ± 0.024,1.04 ± 0.019,0.964 ± 0.015
UniProt Q6IA17 and related entries,0.974 ± 0.033,0.98 ± 0.03,0.981 ± 0.046,0.987 ± 0.045,0.981 ± 0.016,0.977 ± 0.022
FBXO38 (UniProt Q6PIJ6),0.993 ± 0.075,1.03 ± 0.072,1.05 ± 0.071,1.02 ± 0.061,0.985 ± 0.089,1.01 ± 0.11
UniProt Q6P1X6 and related entries,1 ± 0.024,1 ± 0.013,1.02 ± 0.034,0.968 ± 0.028,0.986 ± 0.056,1.01 ± 0.032
TTC21B (UniProt Q7Z4L5),0.973 ± 0.013,0.975 ± 0.026,0.97282 ± 0.00079,0.983 ± 0.035,1 ± 0.013,0.99 ± 0.034
RNF123 (UniProt Q5XPI4),0.953 ± 0.024,0.9501 ± 0.0088,0.965 ± 0.025,0.971 ± 0.024,0.941 ± 0.027,0.949 ± 0.014
UniProt Q7L266 and related entries,1.01 ± 0.038,1.05 ± 0.081,1.03 ± 0.054,1.01 ± 0.016,0.981 ± 0.039,0.995 ± 0.055
UniProt Q6PI26 and related entries,1.01 ± 0.015,1.01 ± 0.048,0.9948 ± 0.001,1.007 ± 0.0059,0.996 ± 0.014,1.01 ± 0.034
Q5W125 and related entries (UniProt Q9NWW6),0.97 ± 0.01,0.972 ± 0.02,0.949 ± 0.013,1.022 ± 0.01,0.971 ± 0.017,0.93318 ± 6.6e-05
LMBRD2 (UniProt Q68DH5),1.02 ± 0.0087,1.07 ± 0.086,1.01 ± 0.029,1.01 ± 0.048,0.951 ± 0.019,0.992 ± 0.024
TTC33 (UniProt Q6PID6),0.981 ± 0.011,1.02 ± 0.025,0.946 ± 0.037,0.949 ± 0.032,0.912 ± 0.018,0.9185 ± 0.004
UniProt Q71SY5 and related entries,0.966 ± 0.019,0.914 ± 0.14,0.995 ± 0.021,1.03 ± 0.012,1.04 ± 0.041,1.05 ± 0.013
UniProt Q6GYQ0 and related entries,1 ± 0.027,0.986 ± 0.021,0.966 ± 0.036,0.925 ± 0.058,0.901 ± 0.026,0.92 ± 0.051

# Some of the entries so far, tab-delimited.
Target	NP40-soluble protein abundance (concentration: 1mM)	NP40-soluble protein abundance (concentration: 2mM)	NP40-soluble protein abundance (concentration: 4mM)	NP40-soluble protein abundance (concentration: 6mM)	NP40-soluble protein abundance (concentration: 8mM)	NP40-soluble protein abundance (concentration: 10mM)
UniProt Q6IA17 and related entries	0.974 ± 0.033	0.98 ± 0.03	0.981 ± 0.046	0.987 ± 0.045	0.981 ± 0.016	0.977 ± 0.022
FBXO38 (UniProt Q6PIJ6)	0.993 ± 0.075	1.03 ± 0.072	1.05 ± 0.071	1.02 ± 0.061	0.985 ± 0.089	1.01 ± 0.11

# Reference: the supplement of paper PMC6411743
